Further values from the same series stand in other lists.

Sequences of proteins named here, by UniProt entry; tags and fusion partners are left off.
UniProt Q61188, whole entry: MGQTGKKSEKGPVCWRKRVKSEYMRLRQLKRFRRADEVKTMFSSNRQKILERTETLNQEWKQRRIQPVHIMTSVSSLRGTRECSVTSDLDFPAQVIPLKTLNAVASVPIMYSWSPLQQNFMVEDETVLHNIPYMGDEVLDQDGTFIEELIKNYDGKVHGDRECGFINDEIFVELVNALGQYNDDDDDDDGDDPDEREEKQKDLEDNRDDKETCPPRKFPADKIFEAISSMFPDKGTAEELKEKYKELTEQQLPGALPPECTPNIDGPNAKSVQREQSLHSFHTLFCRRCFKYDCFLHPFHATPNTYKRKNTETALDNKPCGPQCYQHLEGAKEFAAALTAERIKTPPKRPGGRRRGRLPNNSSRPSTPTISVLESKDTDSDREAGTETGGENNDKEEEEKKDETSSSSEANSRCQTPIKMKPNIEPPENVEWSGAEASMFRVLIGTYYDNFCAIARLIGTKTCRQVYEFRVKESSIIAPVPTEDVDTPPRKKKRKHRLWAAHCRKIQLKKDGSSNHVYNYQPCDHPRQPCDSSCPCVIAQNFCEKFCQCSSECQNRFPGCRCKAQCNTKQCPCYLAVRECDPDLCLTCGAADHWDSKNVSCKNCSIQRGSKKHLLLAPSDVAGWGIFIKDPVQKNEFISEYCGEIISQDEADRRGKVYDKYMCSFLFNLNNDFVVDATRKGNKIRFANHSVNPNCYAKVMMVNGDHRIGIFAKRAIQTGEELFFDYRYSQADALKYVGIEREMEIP

Drawing on ChEMBL document CHEMBL5674883, “The Heterochromatin Landscape in Migrating Cells and the Importance of H3K27me3 for Associated Transcriptome Alterations” (Cells, 2018), this text covers log2FC for two compounds.

Assay type in all cases: cell-based
Test [1] deals with T1, RNA polymerase II (Mus musculus) (UniProt P08775+Q8CFI7+P97760+A0A3Q4L2S8+Q80UW8+P61219+P62488+Q923G2+P60898+O08740+Q63871+P62876). The experiment in a line: Inhibition of RNA polymerase II in mouse B16-F1 migrating cells assessed as fold change in Tmed7-RNA stability at 0.1 mM measured by ChIP-seq analysis relative to control cells.
The target in test [2] is T1, RNA polymerase II (Mus musculus). Kind of test: Inhibition of RNA polymerase II in mouse B16-F1 migrating cells assessed as fold change in Zyx-RNA stability at 0.1 mM measured by ChIP-seq analysis relative to control cells.
The target is the same in test [3]. Kind of test: Inhibition of RNA polymerase II in mouse B16-F1 migrating cells assessed as fold change in Plin2-RNA stability at 0.1 mM measured by ChIP-seq analysis relative to control cells.
For test [4] the target is unchanged. The experiment in a line: Inhibition of RNA polymerase II in mouse B16-F1 migrating cells assessed as fold change in Tcn2-RNA stability at 0.1 mM measured by ChIP-seq analysis relative to control cells.
Test [5] shares this target. The experiment in a line: Inhibition of RNA polymerase II in mouse B16-F1 migrating cells assessed as fold change in Efr3a-RNA stability at 0.1 mM measured by ChIP-seq analysis relative to control cells.
The target is the same in test [6]. The experiment in a line: Inhibition of RNA polymerase II in mouse B16-F1 migrating cells assessed as fold change in Rpl24-RNA stability at 0.1 mM measured by ChIP-seq analysis relative to control cells.
Test [7] has the same target. Kind of test: Inhibition of RNA polymerase II in mouse B16-F1 migrating cells assessed as fold change in Tmem30a-RNA stability at 0.1 mM measured by ChIP-seq analysis relative to control cells.
Test [8] shares this target. Kind of test: Inhibition of RNA polymerase II in mouse B16-F1 migrating cells assessed as fold change in Zbtb6-RNA stability at 0.1 mM measured by ChIP-seq analysis relative to control cells.
The target is the same in test [9]. The experiment in a line: Inhibition of RNA polymerase II in mouse B16-F1 migrating cells assessed as fold change in Gemin7-RNA stability at 0.1 mM measured by ChIP-seq analysis relative to control cells.
Test [10] shares this target. The experiment in a line: Inhibition of RNA polymerase II in mouse B16-F1 migrating cells assessed as fold change in Rpl9-RNA stability at 0.1 mM measured by ChIP-seq analysis relative to control cells.
Test [11] shares this target. Kind of test: Inhibition of RNA polymerase II in mouse B16-F1 migrating cells assessed as fold change in Pgap1-RNA stability at 0.1 mM measured by ChIP-seq analysis relative to control cells.
For test [12] the target is unchanged. Kind of test: Inhibition of RNA polymerase II in mouse B16-F1 migrating cells assessed as fold change in St6galnac6-RNA stability at 0.1 mM measured by ChIP-seq analysis relative to control cells.
Test [13] shares this target. The experiment in a line: Inhibition of RNA polymerase II in mouse B16-F1 migrating cells assessed as fold change in Bad-RNA stability at 0.1 mM measured by ChIP-seq analysis relative to control cells.
Test [14] shares this target. The experiment in a line: Inhibition of RNA polymerase II in mouse B16-F1 migrating cells assessed as fold change in Snx10-RNA stability at 0.1 mM measured by ChIP-seq analysis relative to control cells.
For test [15] the target is unchanged. The experiment in a line: Inhibition of RNA polymerase II in mouse B16-F1 migrating cells assessed as fold change in Dyrk3-RNA stability at 0.1 mM measured by ChIP-seq analysis relative to control cells.
For test [16] the target is unchanged. The experiment in a line: Inhibition of RNA polymerase II in mouse B16-F1 migrating cells assessed as fold change in Far1-RNA stability at 0.1 mM measured by ChIP-seq analysis relative to control cells.
Test [17] has the same target. The experiment in a line: Inhibition of RNA polymerase II in mouse B16-F1 migrating cells assessed as fold change in Coq4-RNA stability at 0.1 mM measured by ChIP-seq analysis relative to control cells.
The target is the same in test [18]. Kind of test: Inhibition of RNA polymerase II in mouse B16-F1 migrating cells assessed as fold change in Cdc27-RNA stability at 0.1 mM measured by ChIP-seq analysis relative to control cells.
Test [19] has the same target. Kind of test: Inhibition of RNA polymerase II in mouse B16-F1 migrating cells assessed as fold change in Mapk8ip1-RNA stability at 0.1 mM measured by ChIP-seq analysis relative to control cells.
Test [20] shares this target. Kind of test: Inhibition of RNA polymerase II in mouse B16-F1 migrating cells assessed as fold change in Pnkp-RNA stability at 0.1 mM measured by ChIP-seq analysis relative to control cells.
The target is the same in test [21]. The experiment in a line: Inhibition of RNA polymerase II in mouse B16-F1 migrating cells assessed as fold change in Aldoc-RNA stability at 0.1 mM measured by ChIP-seq analysis relative to control cells.
Test [22] shares this target. The experiment in a line: Inhibition of RNA polymerase II in mouse B16-F1 migrating cells assessed as fold change in Rps26-RNA stability at 0.1 mM measured by ChIP-seq analysis relative to control cells.
Test [23] deals with Histone-lysine N-methyltransferase EZH2 (Mus musculus) (UniProt Q61188). Kind of test: Inhibition of EZH2 in mouse B16-F1 migrating cells assessed as fold change in H3K27me3-independent regulated Spsb2-mRNA expression at 3 uM measured by ChIP-seq analysis relative to control cells.
For test [24] the target is unchanged. The experiment in a line: Inhibition of EZH2 in mouse B16-F1 migrating cells assessed as fold change in H3K27me3-buffered regulated Wfs1-mRNA expression at 3 uM measured by ChIP-seq analysis relative to control cells.
Test [25] shares this target. Kind of test: Inhibition of EZH2 in mouse B16-F1 migrating cells assessed as fold change in H3K27me3-buffered regulated Rabggtb-mRNA expression at 3 uM measured by ChIP-seq analysis relative to control cells.
For test [26] the target is unchanged. The experiment in a line: Inhibition of EZH2 in mouse B16-F1 migrating cells assessed as fold change in H3K27me3-buffered regulated Cenpj-mRNA expression at 3 uM measured by ChIP-seq analysis relative to control cells.
Test [27] shares this target. The experiment in a line: Inhibition of EZH2 in mouse B16-F1 migrating cells assessed as fold change in H3K27me3-buffered regulated Gab1-mRNA expression at 3 uM measured by ChIP-seq analysis relative to control cells.
For test [28] the target is unchanged. The experiment in a line: Inhibition of EZH2 in mouse B16-F1 migrating cells assessed as fold change in H3K27me3-buffered regulated Nfkbiz-mRNA expression at 3 uM measured by ChIP-seq analysis relative to control cells.
Test [29] shares this target. Kind of test: Inhibition of EZH2 in mouse B16-F1 migrating cells assessed as fold change in H3K27me3-buffered regulated Hoxa3-mRNA expression at 3 uM measured by ChIP-seq analysis relative to control cells.
The target is the same in test [30]. The experiment in a line: Inhibition of EZH2 in mouse B16-F1 migrating cells assessed as fold change in H3K27me3-buffered regulated Sox9-mRNA expression at 3 uM measured by ChIP-seq analysis relative to control cells.

With `OC[C@H]1O[C@@H](n2cnc3cc(Cl)c(Cl)cc32)[C@H](O)[C@@H]1O`, the log2FC in test [1] was -0.5; in [2] it was 0.51; in test [3] it was 0.49; in test [4], 0.4; in test [5] it was -0.41; in test [6], 0.57. Further, the log2FC in test [7] is -0.72; in [8], -0.83; in [9], 0.46; in test [10] it was 0.45; in [11] it was -0.51; in test [12] it was 0.42. Further, the log2FC in test [13] was 0.5; in [14] it was -0.51; in [15] it was -1.09; in [16] it was -0.74; in test [17], 0.48; in test [18], -0.7. The log2FC in test [19] was 0.57; in [20] it was 0.44; in [21] it was 1.18; in [22] it was 0.5.
As for `CCCc1cc(C)[nH]c(=O)c1CNC(=O)c1cc(-c2ccnc(N3CCN(C)CC3)c2)cc2c1cnn2C(C)C`, the log2FC in test [23] was 0.42; in test [24] it was 0.47; in [25], -0.41; in test [26] it was -0.48; in [27] it was -0.5; in test [28], -0.91. In addition, the results for the log2FC in test [29] and in [30] were -0.53 and 0.48, respectively.
